Laboratory results published in the supplement of paper PMC11546906.
Structures can show the parent of a compound that is named as a salt. This is one part of the list. Repeats in this data set agree poorly, so a single value says little.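 Screen of FDA-approved drugs, each combined with colistin at one-eighth of its MIC, against a multidrug-resistant mcr-1-positive clinical E. coli isolate; growth read as OD600 after 24 h. Bacteria without drug were the growth control and plain broth the blank. A combination counted as active when OD600 fell below 0.2.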

tested on: Escherichia coli 42 (mcr-1-positive clinical isolate); assay: OD600 after 24 h growth with compound plus colistin (absorbance units (OD600)); higher = more bacterial growth (less inhibition); conditions: first compound 25 µM; colistin concentration 0.5 ug/mL; incubation time 24 h; 37 °C

OD600, inactive:
C[C@@H]1CN(c2c(F)c(N)c3c(=O)c(C(=O)O)cn(C4CC4)c3c2F)C[C@H](C)N1 [Sparfloxacin] + CCC(C)CCCC(=O)N[C@@H](CCN)C(=O)N[C@H](C(=O)N[C@@H](CCN)C(=O)N[C@H]1CCNC(=O)[C@H]([C@@H](C)O)NC(=O)[C@H](CCN)NC(=O)[C@H](CCN)NC(=O)[C@H](CC(C)C)NC(=O)[C@@H](CC(C)C)NC(=O)[C@H](CCN)NC1=O)[C@@H](C)O [colistin] 0.687
COc1ccccc1OCC(O)COC(N)=O (stereo not drawn) [Methocarbamol] + CCC(C)CCCC(=O)N[C@@H](CCN)C(=O)N[C@H](C(=O)N[C@@H](CCN)C(=O)N[C@H]1CCNC(=O)[C@H]([C@@H](C)O)NC(=O)[C@H](CCN)NC(=O)[C@H](CCN)NC(=O)[C@H](CC(C)C)NC(=O)[C@@H](CC(C)C)NC(=O)[C@H](CCN)NC1=O)[C@@H](C)O [colistin] 0.94
CC(=O)O[C@]1(C(C)=O)CC[C@H]2[C@@H]3C[C@H](C)C4=CC(=O)CC[C@]4(C)[C@H]3CC[C@@]21C [Medroxyprogesterone Acetate] + CCC(C)CCCC(=O)N[C@@H](CCN)C(=O)N[C@H](C(=O)N[C@@H](CCN)C(=O)N[C@H]1CCNC(=O)[C@H]([C@@H](C)O)NC(=O)[C@H](CCN)NC(=O)[C@H](CCN)NC(=O)[C@H](CC(C)C)NC(=O)[C@@H](CC(C)C)NC(=O)[C@H](CCN)NC1=O)[C@@H](C)O [colistin] 1.15
CCCN1CCCC[C@H]1C(=O)Nc1c(C)cccc1C [Ropivacaine hydrochloride monohydrate] + CCC(C)CCCC(=O)N[C@@H](CCN)C(=O)N[C@H](C(=O)N[C@@H](CCN)C(=O)N[C@H]1CCNC(=O)[C@H]([C@@H](C)O)NC(=O)[C@H](CCN)NC(=O)[C@H](CCN)NC(=O)[C@H](CC(C)C)NC(=O)[C@@H](CC(C)C)NC(=O)[C@H](CCN)NC1=O)[C@@H](C)O [colistin] 1.03
NC(CO)(CO)CO [Trometamol] + CCC(C)CCCC(=O)N[C@@H](CCN)C(=O)N[C@H](C(=O)N[C@@H](CCN)C(=O)N[C@H]1CCNC(=O)[C@H]([C@@H](C)O)NC(=O)[C@H](CCN)NC(=O)[C@H](CCN)NC(=O)[C@H](CC(C)C)NC(=O)[C@@H](CC(C)C)NC(=O)[C@H](CCN)NC1=O)[C@@H](C)O [colistin] 0.766
NCc1ccc(S(N)(=O)=O)cc1 [Mafenide hydrochloride] + CCC(C)CCCC(=O)N[C@@H](CCN)C(=O)N[C@H](C(=O)N[C@@H](CCN)C(=O)N[C@H]1CCNC(=O)[C@H]([C@@H](C)O)NC(=O)[C@H](CCN)NC(=O)[C@H](CCN)NC(=O)[C@H](CC(C)C)NC(=O)[C@@H](CC(C)C)NC(=O)[C@H](CCN)NC1=O)[C@@H](C)O [colistin] 0.997
CC[C@H](C)[C@@H]1NC(=O)[C@H](Cc2ccc(O)cc2)NC(=O)[C@@H](N)CSSC[C@@H](C(=O)N2CCC[C@H]2C(=O)N[C@@H](CC(C)C)C(=O)NCC(N)=O)NC(=O)[C@H](CC(N)=O)NC(=O)[C@H](CCC(N)=O)NC1=O [Oxytocin] + CCC(C)CCCC(=O)N[C@@H](CCN)C(=O)N[C@H](C(=O)N[C@@H](CCN)C(=O)N[C@H]1CCNC(=O)[C@H]([C@@H](C)O)NC(=O)[C@H](CCN)NC(=O)[C@H](CCN)NC(=O)[C@H](CC(C)C)NC(=O)[C@@H](CC(C)C)NC(=O)[C@H](CCN)NC1=O)[C@@H](C)O [colistin] 1.07
CC(=O)S[C@@H]1CC2=CC(=O)CC[C@]2(C)[C@H]2CC[C@@]3(C)[C@@H](CC[C@@]34CCC(=O)O4)[C@H]12 [Spironolactone] + CCC(C)CCCC(=O)N[C@@H](CCN)C(=O)N[C@H](C(=O)N[C@@H](CCN)C(=O)N[C@H]1CCNC(=O)[C@H]([C@@H](C)O)NC(=O)[C@H](CCN)NC(=O)[C@H](CCN)NC(=O)[C@H](CC(C)C)NC(=O)[C@@H](CC(C)C)NC(=O)[C@H](CCN)NC1=O)[C@@H](C)O [colistin] 0.899
CNC(=O)c1ccc(N2C(=S)N(c3cnc(C#N)c(C(F)(F)F)c3)C(=O)C23CCC3)cc1F [Apalutamide] + CCC(C)CCCC(=O)N[C@@H](CCN)C(=O)N[C@H](C(=O)N[C@@H](CCN)C(=O)N[C@H]1CCNC(=O)[C@H]([C@@H](C)O)NC(=O)[C@H](CCN)NC(=O)[C@H](CCN)NC(=O)[C@H](CC(C)C)NC(=O)[C@@H](CC(C)C)NC(=O)[C@H](CCN)NC1=O)[C@@H](C)O [colistin] 0.841
CC1(C)O[C@@H]2C[C@H]3[C@@H]4CCC5=CC(=O)C=C[C@]5(C)[C@H]4[C@@H](O)C[C@]3(C)[C@]2(C(=O)CO)O1 [Desonide] + CCC(C)CCCC(=O)N[C@@H](CCN)C(=O)N[C@H](C(=O)N[C@@H](CCN)C(=O)N[C@H]1CCNC(=O)[C@H]([C@@H](C)O)NC(=O)[C@H](CCN)NC(=O)[C@H](CCN)NC(=O)[C@H](CC(C)C)NC(=O)[C@@H](CC(C)C)NC(=O)[C@H](CCN)NC1=O)[C@@H](C)O [colistin] 0.825
O=NN(CCCl)C(=O)NC1CCCCC1 [Lomustine] + CCC(C)CCCC(=O)N[C@@H](CCN)C(=O)N[C@H](C(=O)N[C@@H](CCN)C(=O)N[C@H]1CCNC(=O)[C@H]([C@@H](C)O)NC(=O)[C@H](CCN)NC(=O)[C@H](CCN)NC(=O)[C@H](CC(C)C)NC(=O)[C@@H](CC(C)C)NC(=O)[C@H](CCN)NC1=O)[C@@H](C)O [colistin] 0.904
CC(=O)OCC(=O)[C@@]1(O)CC[C@H]2[C@@H]3CCC4=CC(=O)CC[C@]4(C)[C@H]3C(=O)C[C@@]21C [Cortisone acetate] + CCC(C)CCCC(=O)N[C@@H](CCN)C(=O)N[C@H](C(=O)N[C@@H](CCN)C(=O)N[C@H]1CCNC(=O)[C@H]([C@@H](C)O)NC(=O)[C@H](CCN)NC(=O)[C@H](CCN)NC(=O)[C@H](CC(C)C)NC(=O)[C@@H](CC(C)C)NC(=O)[C@H](CCN)NC1=O)[C@@H](C)O [colistin] 0.97
CC#CCn1c(N2CCC[C@@H](N)C2)nc2c1c(=O)n(Cc1nc(C)c3ccccc3n1)c(=O)n2C [Linagliptin] + CCC(C)CCCC(=O)N[C@@H](CCN)C(=O)N[C@H](C(=O)N[C@@H](CCN)C(=O)N[C@H]1CCNC(=O)[C@H]([C@@H](C)O)NC(=O)[C@H](CCN)NC(=O)[C@H](CCN)NC(=O)[C@H](CC(C)C)NC(=O)[C@@H](CC(C)C)NC(=O)[C@H](CCN)NC1=O)[C@@H](C)O [colistin] 1.04

A portion taken from the entries so far:
OD600, inactive:
O=NN(CCCl)C(=O)NC1CCCCC1 [Lomustine] + CCC(C)CCCC(=O)N[C@@H](CCN)C(=O)N[C@H](C(=O)N[C@@H](CCN)C(=O)N[C@H]1CCNC(=O)[C@H]([C@@H](C)O)NC(=O)[C@H](CCN)NC(=O)[C@H](CCN)NC(=O)[C@H](CC(C)C)NC(=O)[C@@H](CC(C)C)NC(=O)[C@H](CCN)NC1=O)[C@@H](C)O [colistin] 0.904
CC(=O)OCC(=O)[C@@]1(O)CC[C@H]2[C@@H]3CCC4=CC(=O)CC[C@]4(C)[C@H]3C(=O)C[C@@]21C [Cortisone acetate] + CCC(C)CCCC(=O)N[C@@H](CCN)C(=O)N[C@H](C(=O)N[C@@H](CCN)C(=O)N[C@H]1CCNC(=O)[C@H]([C@@H](C)O)NC(=O)[C@H](CCN)NC(=O)[C@H](CCN)NC(=O)[C@H](CC(C)C)NC(=O)[C@@H](CC(C)C)NC(=O)[C@H](CCN)NC1=O)[C@@H](C)O [colistin] 0.97
